From paper doi:10.1101/2021.04.26.441214 (bioRxiv, 2021)

How the values were obtained:
[1] = molecular target: T. maritima encapsulin shell protein (wild type) (T. maritima); test: cryo-EM structure
[2] = molecular target: T. maritima encapsulin shell protein W90E (T. maritima); test: co-purification

- binding [1]: binds
- binding [2]: binds
B1: T. maritima ferritin-like protein (FLP) cargo (natural protein, UniProt Q9WZP3 1-114, looked up)
chain: MADQYHEPVSELTGKDRDFVRALNSLKEEIEAVAWYHQRVVTTKDETVRKILEHNRDEEMEHAAMLLEWLRRNMPGWDEALRTYLFTDKPITEIEEETSGGSENTGGDLGIRKL

Results are given in words; binding and its absence hold for the method and conditions named. Binding can be weak; no strength is given. For some assays here: Binding seen in cells or lysates may run through a third protein.
